Counter-ions that a name gives are not always drawn. Like-named read-outs stand apart in the source and are kept apart here. About 95 (3%) of roughly 3,300 compounds showed an effect of 50% or more. The list shows a part of the results.
Test system: HCoV-229E
Set-up: species or system Huh-7; HTS, protection from HCoV-229E induced cell death, luminescent cell viability (CellCounting-Lite 2.0), inhibition rate
Settings: 24 h post infection, 1 h compound pre-incubation, 10 µM, inhibitor

SMILES: O=C(O)/C=C/C=C/C(=O)O [trans-trans-Muconic acid]
- 229E Inhibition rate: 14.2%

SMILES: O=C(O)c1ncccc1O [3-Hydroxypicolinic acid]
- 229E Inhibition rate: 21.6%

SMILES: COc1ccc(O)c(N)c1 [2-Amino-4-methoxyphenol]
- 229E Inhibition rate: 9.6%

SMILES: O=C(O)C(O)c1ccc(O)c(O)c1 (centres unmarked) [3,4-Dihydroxymandelic acid]
- 229E Inhibition rate: 47.7%

SMILES: NCCCC[C@H](N)C(=O)O [L-Lysine hydrochloride]
- 229E Inhibition rate (229E Inhibition rate, 24 h): 8.4%

SMILES: C[C@@H]1O[C@@H](O[C@H]2[C@H](Oc3cc(O)c4c(c3)O[C@H](c3ccc(O)c(O)c3)CC4=O)O[C@H](CO)[C@@H](O)[C@@H]2O)[C@H](O)[C@H](O)[C@H]1O [Neoeriocitrin]
- 229E Inhibition rate: 11.2%

SMILES: O=c1c(-c2ccc(O[C@@H]3O[C@H](CO)[C@@H](O)[C@H](O)[C@H]3O)cc2)coc2cc(O)cc(O)c12 [Sophoricoside]
- 229E Inhibition rate: 31.3%

SMILES: CCCCCCCCCCCCCCCC=O [Hexadecanal]
- 229E Inhibition rate: 36.4%

SMILES: C[C@H]1O[C@@H](Oc2ccc(COC(=O)CC(O)(CC(=O)OCc3ccc(O[C@@H]4O[C@H](CO)[C@@H](O)[C@H](O)[C@H]4O)cc3)C(=O)Oc3ccc(O[C@H]4O[C@H](CO)[C@@H](O)[C@H](O)[C@H]4O)cc3)cc2)[C@H](O)[C@@H](O)[C@@H]1O (some centres unmarked) [Parishin]
- 229E Inhibition rate: 9.7%

SMILES: Oc1cc(O)c2c(c1)O[C@H](c1ccc(O)c(O)c1)[C@H](O)[C@H]2c1c(O)cc(O)c2c1O[C@H](c1ccc(O)c(O)c1)[C@H](O)[C@H]2c1c(O)cc(O)c2c1O[C@H](c1ccc(O)c(O)c1)[C@H](O)C2 [Procyanidin C1]
- 229E Inhibition rate: 0%

SMILES: COc1cccc2c1cc([N+](=O)[O-])c1c(C(=O)O)cc3c(c12)OCO3 [Aristolochic acid A]
- 229E Inhibition rate: 11.8%

SMILES: C=C1C[C@@]23CC[C@H]4[C@@](C)(CCC[C@@]4(C)C(=O)O)[C@@H]2CC[C@]1(O[C@@H]1O[C@H](CO)[C@@H](O)[C@H](O)[C@H]1O[C@@H]1O[C@H](CO)[C@@H](O)[C@H](O)[C@H]1O)C3 [Steviolbioside]
- 229E Inhibition rate: 5.6%

SMILES: CC1(C)CC[C@]2(C(=O)O[C@@H]3O[C@H](CO)[C@@H](O)[C@H](O)[C@H]3O)CC[C@]3(C)C(=CC[C@@H]4[C@@]5(C)CC[C@H](O[C@@H]6O[C@H](C(=O)O)[C@@H](O[C@@H]7O[C@@H](CO)[C@H](O)[C@H]7O)[C@H](O)[C@H]6O)C(C)(C)[C@@H]5CC[C@]43C)[C@@H]2C1 [Araloside A]
- 229E Inhibition rate: 12%

SMILES: C/C=C/C/C=C/CCC(=O)[C@H]1O[C@H]1C(N)=O [Cerulenin]
- 229E Inhibition rate: 29.4%

From PMC12431657, “Discovery and mechanistic insights of dibenzoylmethane as a broad spectrum inhibitor of coronavirus” (PLOS Pathogens, 2025)
